## Library screen at single concentrations

Amino acid sequences for entries named in this document (tags omitted). Residues count along the entry.
UniProt A4I591, 1-473: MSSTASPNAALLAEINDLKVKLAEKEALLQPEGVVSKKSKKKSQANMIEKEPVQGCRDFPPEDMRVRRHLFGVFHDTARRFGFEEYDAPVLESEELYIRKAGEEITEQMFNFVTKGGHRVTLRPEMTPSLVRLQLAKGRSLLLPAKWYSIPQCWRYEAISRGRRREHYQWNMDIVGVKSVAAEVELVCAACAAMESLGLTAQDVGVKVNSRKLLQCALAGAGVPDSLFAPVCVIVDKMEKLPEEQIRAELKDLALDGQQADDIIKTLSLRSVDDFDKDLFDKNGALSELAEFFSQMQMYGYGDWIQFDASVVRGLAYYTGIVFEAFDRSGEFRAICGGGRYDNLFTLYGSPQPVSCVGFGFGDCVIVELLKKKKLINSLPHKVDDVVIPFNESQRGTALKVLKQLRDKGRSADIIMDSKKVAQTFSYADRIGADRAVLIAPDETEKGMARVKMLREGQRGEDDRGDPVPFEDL
UniProt P9WNZ1, whole entry: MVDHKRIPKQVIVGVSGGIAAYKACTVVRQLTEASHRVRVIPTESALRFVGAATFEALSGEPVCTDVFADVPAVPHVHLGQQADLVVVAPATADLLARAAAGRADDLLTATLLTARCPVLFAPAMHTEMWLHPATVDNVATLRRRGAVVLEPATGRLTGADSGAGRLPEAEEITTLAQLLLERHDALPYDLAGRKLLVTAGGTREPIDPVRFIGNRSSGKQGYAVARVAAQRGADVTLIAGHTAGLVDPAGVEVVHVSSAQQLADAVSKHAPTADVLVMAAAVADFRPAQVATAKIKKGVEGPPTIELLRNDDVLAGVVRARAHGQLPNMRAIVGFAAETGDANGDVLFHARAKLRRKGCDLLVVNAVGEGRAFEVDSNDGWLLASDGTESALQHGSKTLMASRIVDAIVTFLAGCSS

Values are the deposited “Percent Effect”, in %. The controls that fix the scale are not given in the record; negative values are as filed. This is an unselected part of the compounds tested. Two or more numbers in one place are separate tests of the same structure; such repeats can differ widely. A dash means the value is not listed here; it may have been measured.

A: 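Histidine-tRNA ligase, Leishmania infantum (UniProt A4I591). Enzyme assay of histidyl-tRNA synthetase; the read-out is not stated. Concentration: 30 µM. The record gives no direction; compounds that gave an IC50 in retests scored well above the rest, so higher reads as stronger inhibition. The assay is labelled LdHisRS but filed under L. infantum. Of about 69,000 compounds tested this way, about 410 (0.6%) reached 50% or more in at least one test.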
B: 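Cell assay of Leishmania donovani living inside macrophages; the read-out is not stated. Tested at 30 µM. Higher reads as stronger inhibition (inferred: compounds with an IC50 in retests scored well above the rest). Of about 69,000 compounds tested this way, about 1,000 (1.5%) reached 50% or more in at least one test.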
C: 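Coenzyme A biosynthesis protein CoaBC, Mycobacterium tuberculosis (UniProt P9WNZ1). Enzyme assay of CoaBC with a phosphate dye (Biomol Green) read at 650 nm. Tested at 30 µM. Direction is inferred from only a few compounds that gave an IC50; most scored high, so higher reads as stronger inhibition. Most strong results did not repeat in a second test. Size under these conditions: about 67,000 compounds, about 40 of them at 50% or above in at least one test.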

Compound,A,B,C
CCc1nc(C2CCCN(C(=O)c3ccc(F)cc3)C2)no1 (configuration not stated),15.04%,4.266%,1.567%
Cc1nc(N2CCOCC2)nc2c1CCN(Cc1ccsc1)CC2.O=C(O)C(F)(F)F,-,-9.8%,-
CCCOc1ccccc1CN[C@@H]1CCC[C@H]1Cc1cc(C)no1.O=C(O)CC(O)(CC(=O)O)C(=O)O,-,9.075% & 5.407%,-
O=S(=O)(c1ccc2c(c1)CCC2)N1CCCC(Cn2cncn2)C1 (configuration not stated),13.7%,-3.11%,8.765%
O=C(O)CCc1cccc(C2CCCN2Cc2ccc(F)c(F)c2)n1 (configuration not stated),16.67%,-8.801%,-1.667%
CNC(=O)c1ccc(C2CN(C(=O)c3scnc3C)CCO2)nc1 (configuration not stated),15.62%,7.721%,1.961%
Cc1cnc(N2CCC3(C2)C(=O)N(C)CCN3Cc2cccnc2)nc1 (configuration not stated),28.77%,-,0.1631%
Nc1nc(C2CCN(C(=O)c3cscn3)CC2)cs1,10.95%,13.07%,13.47%
OC1COCCN(Cc2cc(-c3ccccc3OC(F)(F)F)no2)C1 (configuration not stated),30.12%,-21.47%,-2.405%
COc1cc(NC(=O)C2CC(=O)N(c3cccc(Br)c3)C2)ncn1 (configuration not stated),12.17%,0.8015% & -20.98%,-2.326%
Cc1cc(C(=O)NCC(C)N2CCc3ccccc32)no1 (configuration not stated),6.25%,30.52%,1.845%
O=C(NCCN1CCOCC1)c1ccc(OCc2ccccc2)nc1,14.53%,32.39%,7.983%
CN(C)CCN1CCCC12CCN(C(=O)c1cccnc1)CC2,17.07%,-,1.209%
CN1CCc2cc(C(=O)N(C)C)c(NCC3CC3)nc2CC1.O=C(O)C(F)(F)F.O=C(O)C(F)(F)F,-,-3.642%,-
O=C(CN1CCCCC1Cn1cncn1)NCCC1=CCCCC1 (configuration not stated),-1.124%,-10.81%,5.141%
Cn1ccnc1CN1CCN2C[C@H](Oc3cncnc3)C[C@H]2C1,2.857%,-,-1.303%
CCCN(Cc1cccc(OCCO)c1)Cc1ccccc1OC,9.917%,25.38%,-0.3745%
Cc1noc(C)c1CN1CCC(c2ccnn2CCO)CC1,10.71%,27.93%,5.682%
CCO[C@H]1C[C@@H](O)C12CCN(C(=O)CN1CCCCCC1=O)CC2,3.797%,-9.846%,1.901%
C[C@@H](NC(=O)c1cnccn1)c1c(-c2ccc(Cl)cc2)noc1C(=O)O.Cl,-,8.094%,-
C[S+]([O-])c1nncn1CC(=O)c1ccc2c(c1)CCC2 (configuration not stated),0%,9.576%,-9.871%
CCC(=O)NCC(Cc1cccc(F)c1)n1cccc1 (configuration not stated),15.65%,15.6% & 13.9%,9.091%
CC(C)Nc1nc2c(cc1C(=O)NCC1CC1)CCNCC2,15.09%,-,0.1269%
[H][C@@]12COC[C@H](C(=O)N3CCCCO3)[C@]1([H])CN(C1CCOCC1)C2,-,0.6921%,-
CCCc1n[nH]c(C2CN(CCCS(C)(=O)=O)CCO2)n1 (configuration not stated),8.108%,-4.632%,-1.305%
O=C(O)C(F)(F)F.O=C(O)C(F)(F)F.[H][C@]12C[C@@H](CN3CCCC3)N(C)[C@@]1([H])CCN(C(=O)c1occc1C)C2,-,39.47%,-
c1cc2nc(C3CCNCC3)nn2cc1NC1CCC1,9.901%,33.34%,6.559%
Cc1cc(C2CCCN(S(=O)(=O)c3cn[nH]c3)C2)ccn1 (configuration not stated),10.34%,-0.9065%,0.8653%
CC[C@@H]1N(Cc2nccs2)CCC[C@]12CCC(=O)N2C.O=C(O)C(F)(F)F,-,25.33%,-
COc1ccc(Cc2noc(C3=NN(C)C(=O)CC3)n2)cc1OC,8.571%,12.84%,-13.41%
O=C(O)C(F)(F)F.[H][C@@]12CN(Cc3ccco3)CCC[C@]1(C(=O)O)CN(c1ncc(C)cn1)C2,-,24.11%,-
Cc1cc(CN2CCC3(CC2)CC(Nc2ncccn2)CO3)nn1C.O=C(O)C(F)(F)F (configuration not stated),-,-25.61%,-
CCN1CCN(C(=O)c2cccc(CN3CCOCC3)c2)CC1,6.742%,-11.17%,-2.768%
[H][C@@]12CN(C3CCOCC3)C[C@]1([H])N(CCc1ccc(OC)cc1)C(=O)O2,-,-20.04%,-
O=C(CCCC(=O)NCc1cccc(Br)c1)NCCN1CCCC1,16.07%,2.038%,2.428%
CCn1nc(C)c(CCNC(=O)C2CCCN(C(N)=O)C2)c1C (configuration not stated),12.94%,-24.41%,-1.523%
[H][C@]12CCCC(N(C)Cc3ccncc3)[C@@]1([H])CN(c1ncccn1)C2 (some centres not stated),-,3.244% & -1.338%,-
N#Cc1c2n(c3c(=O)[nH]cnc13)CCCC2,1.639%,32.73%,-0.3589%
Cl.O=C1NC2(CCNCC2)CC1c1ccccc1 (configuration not stated),-,39.27%,-
O=C(CN1CC(n2cccn2)C1)NCC1(c2ccccc2)CCC1,6.25%,-5.176%,4.989%
CC(C)N1CCCC(CNC(=O)c2ccnc(-n3ccnc3)c2)C1 (configuration not stated),15.93%,36.8%,1.493%
COc1ccccc1CC(=O)N(CCN1CCOCC1)Cc1ccco1,10.4%,-3.257%,-1.568%
CC(C)c1nc(CNc2ccc(N3CCC(CO)CC3)cn2)cs1,16%,-14.18%,11.98%
O=C(c1cc(C2CC2)no1)N1C[C@H]2CC[C@@H]1CN(Cc1ccccn1)C2,12.9%,-,0.6046%
CCn1cc(CN2CCCC2c2nc(C(C)C)no2)cc1C#N (configuration not stated),-0.8333%,-5.922%,-2.36%
c1ccc(C2CCCN2Cc2nnnn2C2CC2)cc1 (configuration not stated),4.808%,-18.9%,-8.439%
COc1ccc(-c2noc(-c3ccc(N4CCC[C@H]4CO)nc3)n2)cc1,-2.778%,28.34%,5.952%
CCc1nnc(CNC2CCCN(Cc3noc(C4CC4)n3)C2)o1 (configuration not stated),13.27%,-1.291%,8.616%
CN(C)CC1(O)CCN(C(=O)Cc2ccc3ccccc3c2)C1 (configuration not stated),10.74%,-5.671%,0.4566%
COc1ccc(NC2CCc3c2[nH]c(=O)n(C2CCCCC2)c3=O)cc1 (configuration not stated),-2.632%,26.57%,2.02%
CC(C(=O)N1CCCCCC1)N1CCN(Cc2nccn2C)CC1 (configuration not stated),15.18%,42.9%,6.513%
CC(C)(C)NC(=O)COc1ccc(CNCCOc2ccccn2)cc1,17.86%,21.84%,-0.1156%
O=C1CCC(C(=O)Nc2ccc(=O)n(Cc3ccc(Cl)c(Cl)c3)c2)N1 (configuration not stated),95.18%,-33.14%,5.696%
Cn1cc(N2CC3(CCN(Cc4nccs4)CC3)OCC2=O)cn1.O=C(O)C(F)(F)F,-,-14.13%,-
COCc1ncn2c1CN(C(=O)Nc1cccc(OC)c1)CC2,13.7%,3.881%,0.1318%
CS(=O)(=O)NCc1ccc2c(c1)CCC2,-5.479%,-0.9591%,5.165%
CN(C)S(=O)(=O)N1C[C@H]2CCC[C@@]2(COCC2CC2)C1,15.97%,-,-2.764%
O=C(C1CCCC1)N1CCCC(c2nc(O)cc(-c3ccncc3)n2)C1 (configuration not stated),5.208%,-20.6%,-0.4902%
CN(C)c1ccc(NC(=O)NCc2ccccn2)cn1,18.75%,-2.849%,2.635%
CC(C)(C)n1ncc2c1CCCC2NCc1cccc(C(N)=O)c1 (configuration not stated),21.43%,-9.606%,1.734%
COCCN1CC(C(=O)N(CCN(C)C)Cc2ccc(C)s2)CC1=O (configuration not stated),9.836%,21.97%,35.53% & 7.407%
COc1cnc(N2CCCN(Cc3ccc(F)cc3)CC2)nc1,12.9%,-0.2869%,-0.7371%
CN(Cc1ccccn1)C1CCCN(c2cccnn2)C1 (configuration not stated),7.895%,31.68%,-0.1164%

Repeated from the top, 5 entries:

{"compound": "CCc1nc(C2CCCN(C(=O)c3ccc(F)cc3)C2)no1", "stereo": "configuration not stated", "A": 15.04, "B": 4.266, "C": 1.567}
{"compound": "Cc1nc(N2CCOCC2)nc2c1CCN(Cc1ccsc1)CC2.O=C(O)C(F)(F)F", "B": -9.8}
{"compound": "CCCOc1ccccc1CN[C@@H]1CCC[C@H]1Cc1cc(C)no1.O=C(O)CC(O)(CC(=O)O)C(=O)O", "B": "9.075 & 5.407"}
{"compound": "O=S(=O)(c1ccc2c(c1)CCC2)N1CCCC(Cn2cncn2)C1", "stereo": "configuration not stated", "A": 13.7, "B": -3.11, "C": 8.765}
{"compound": "O=C(O)CCc1cccc(C2CCCN2Cc2ccc(F)c(F)c2)n1", "stereo": "configuration not stated", "A": 16.67, "B": -8.801, "C": -1.667}

Source: ChEMBL document CHEMBL3988442, “University of Dundee, Small-Polar-MMV Screening Library” (2021).